# Some of the results follow.
# B1: GS7807G-bfa-506-18-506 (Bacteroides fragilis) (protein)
# chain: ASCDKFDEINTDPDATTKVTSSLLATGLLLDITSSSASKSFIYDELLAKQMAWGESMEDYQYNVFGRSGFGGYTTLINAQKMVESVSDDNVNAYDGLAHFIKAYKIFYMSMEMGDLPYEEALQGELGLVRPKYNTQKEVMNFILSDLETAYELFSTAKDFDGDPILGGSISKWKKATTAFQLKVLMHLSKKESDADLKVKERFARIVASGSLMESNEDNLQMKYADKANTVYPFHNTNTKHAGYAMLSTMLIDKFKATGDIRMFYYAKPAKAKLNEGVTADSWDAYIGTDPSLPFEQIEKAYATEQYSGFNARYTDYPSGEPVVRLGYAEQNFILAEAAVRGWISGDASAYYKKAIRAHMEFIASNTPDEEVYHHGHPITEEAIAAFLETPAIQLSGEKEEDIEKILTQRYLASFMQHPYDVYYDYRRTGYPVLPINPATNRNTMNDRLPMRWMYPKSESDYNLEHQNEALERQFGGVDDVNKLMWILQ
# Experiments:
# Assay in all cases: glycan array binding signal (z-score within array); higher = stronger binding
# Conditions in all cases: glycan notation: IUPAC condensed, linker removed
# [1] = target: GalNAc3S(b1-4)[Fuc(a1-3)]GlcNAc
# Outline: (§1)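 Arrays were curated from the Consortium for Functional Glycomics database, 3228 in total, and kept only where the protein sequence was available. Binding is expressed as a within-array Z-score. This score was averaged across arrays of the same protein sequence at different concentrations or buffers and across linkers, and negative values can be read as non-binding.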
# GalNAc4S6S(b1-4)GlcNAc = target: GalNAc4S6S(b1-4)GlcNAc
# Outline: as §1
# GalNAc6S(b1-4)GlcNAc = target: GalNAc6S(b1-4)GlcNAc
# Outline: as §1
# Glc(a1-4)Glc = target: Glc(a1-4)Glc
# Outline: as §1
# [2] = target: Glc(a1-4)Glc(a1-4)Glc(a1-4)Glc
# Outline: as §1
# Glc(a1-6)Glc(a1-6)Glc = target: Glc(a1-6)Glc(a1-6)Glc
# Outline: as §1
# [3] = target: Glc(a1-6)Glc(a1-6)Glc(a1-6)Glc
# Outline: as §1
# Glc(b1-4)Glc = target: Glc(b1-4)Glc
# Outline: as §1
# Glc(b1-6)Glc = target: Glc(b1-6)Glc
# Outline: as §1
# GlcA(b1-3)Gal = target: GlcA(b1-3)Gal
# Outline: as §1
# GlcA(b1-3)GlcNAc = target: GlcA(b1-3)GlcNAc
# Outline: as §1
# GlcA(b1-6)Gal = target: GlcA(b1-6)Gal
# Outline: as §1
# [4] = target: GlcA3S(b1-3)Gal(b1-4)GlcNAc(b1-2)Man
# Outline: as §1
# [5] = target: GlcA3S(b1-3)Gal(b1-4)GlcNAc(b1-3)Gal(b1-4)Glc
# Outline: as §1
# [6] = target: GlcNAc(a1-3)Gal(b1-4)GlcNAc
# Outline: as §1
# [7] = target: GlcNAc(a1-4)Gal(b1-3)GlcNAc
# Outline: as §1
# [8] = target: GlcNAc(a1-4)Gal(b1-4)GalNAc
# Outline: as §1
# [9] = target: GlcNAc(a1-4)Gal(b1-4)GlcNAc
# Outline: as §1
# [10] = target: GlcNAc(a1-4)Gal(b1-4)GlcNAc(b1-3)Gal(b1-4)Glc
# Outline: as §1
# [11] = target: GlcNAc(a1-4)Gal(b1-4)GlcNAc(b1-3)Gal(b1-4)GlcNAc
# Outline: as §1
# [12] = target: GlcNAc(a1-4)Gal(b1-4)GlcNAc(b1-3)Gal(b1-4)GlcNAc(b1-3)Gal(b1-4)GlcNAc
# Outline: as §1
# [13] = target: GlcNAc(a1-4)Gal(b1-4)GlcNAc(b1-3)Gal(b1-4)[Fuc(a1-3)]GlcNAc(b1-3)Gal(b1-4)[Fuc(a1-3)]GlcNAc
# Outline: as §1
# [14] = target: GlcNAc(a1-6)Gal(b1-4)GlcNAc
# Outline: as §1
# [15] = target: GlcNAc(b1-2)Gal(b1-3)GalNAc
# Outline: as §1
# [16] = target: GlcNAc(b1-2)Man(a1-3)[GlcNAc(b1-2)Man(a1-6)]Man(b1-4)GlcNAc(b1-4)GlcNAc
# Outline: as §1
# [17] = target: GlcNAc(b1-2)Man(a1-3)[GlcNAc(b1-2)Man(a1-6)]Man(b1-4)GlcNAc(b1-4)[Fuc(a1-6)]GlcNAc
# Outline: as §1
# [18] = target: GlcNAc(b1-2)Man(a1-3)[GlcNAc(b1-4)][GlcNAc(b1-2)Man(a1-6)]Man(b1-4)GlcNAc(b1-4)GlcNAc
# Outline: as §1
# [19] = target: GlcNAc(b1-2)Man(a1-3)[GlcNAc(b1-4)][GlcNAc(b1-2)Man(a1-6)]Man(b1-4)GlcNAc(b1-4)[Fuc(a1-6)]GlcNAc
# Outline: as §1
# [20] = target: GlcNAc(b1-2)[GlcNAc(b1-4)]Man(a1-3)[GlcNAc(b1-2)Man(a1-6)]Man(b1-4)GlcNAc(b1-4)GlcNAc
# Outline: as §1
# [21] = target: GlcNAc(b1-2)[GlcNAc(b1-4)]Man(a1-3)[GlcNAc(b1-4)][GlcNAc(b1-2)Man(a1-6)]Man(b1-4)GlcNAc(b1-4)GlcNAc
# Outline: as §1
# [22] = target: GlcNAc(b1-2)[GlcNAc(b1-4)]Man(a1-3)[GlcNAc(b1-4)][GlcNAc(b1-2)[GlcNAc(b1-6)]Man(a1-6)]Man(b1-4)GlcNAc(b1-4)GlcNAc
# Outline: as §1
# [23] = target: GlcNAc(b1-2)[GlcNAc(b1-4)]Man(a1-3)[GlcNAc(b1-4)][GlcNAc(b1-2)[GlcNAc(b1-6)]Man(a1-6)]Man(b1-4)GlcNAc(b1-4)[Fuc(a1-6)]GlcNAc
# Outline: as §1
# [24] = target: GlcNAc(b1-2)[GlcNAc(b1-6)]Man(a1-6)[GlcNAc(b1-2)Man(a1-3)]Man(b1-4)GlcNAc(b1-4)GlcNAc
# Outline: as §1
# [25] = target: GlcNAc(b1-2)[GlcNAc(b1-6)]Man(a1-6)[GlcNAc(b1-2)Man(a1-3)]Man(b1-4)GlcNAc(b1-4)[Fuc(a1-6)]GlcNAc
# Outline: as §1
# [26] = target: GlcNAc(b1-2)[GlcNAc(b1-6)]Man(a1-6)[GlcNAc(b1-4)][GlcNAc(b1-2)Man(a1-3)]Man(b1-4)GlcNAc(b1-4)GlcNAc
# Outline: as §1
# GlcNAc(b1-3)Fuc = target: GlcNAc(b1-3)Fuc
# Outline: as §1
# GlcNAc(b1-3)Gal = target: GlcNAc(b1-3)Gal
# Outline: as §1
# [27] = target: GlcNAc(b1-3)Gal(b1-3)GalNAc
# Outline: as §1
binder,measurement,setting,value
B1,glycan array binding signal (z-score),[1],-0.216
same,glycan array binding signal (z-score),GalNAc4S6S(b1-4)GlcNAc,-0.716
same,glycan array binding signal (z-score),GalNAc6S(b1-4)GlcNAc,1.98
same,glycan array binding signal (z-score),Glc(a1-4)Glc,-1.02
same,glycan array binding signal (z-score),[2],-0.339
same,glycan array binding signal (z-score),Glc(a1-6)Glc(a1-6)Glc,-0.914
same,glycan array binding signal (z-score),[3],-0.402
same,glycan array binding signal (z-score),Glc(b1-4)Glc,-0.922
same,glycan array binding signal (z-score),Glc(b1-6)Glc,-0.717
same,glycan array binding signal (z-score),GlcA(b1-3)Gal,-0.386
same,glycan array binding signal (z-score),GlcA(b1-3)GlcNAc,-0.379
same,glycan array binding signal (z-score),GlcA(b1-6)Gal,2.31
same,glycan array binding signal (z-score),[4],-0.372
same,glycan array binding signal (z-score),[5],0.312
same,glycan array binding signal (z-score),[6],-0.747
same,glycan array binding signal (z-score),[7],-0.767
same,glycan array binding signal (z-score),[8],-0.899
same,glycan array binding signal (z-score),[9],-0.649
same,glycan array binding signal (z-score),[10],-0.832
same,glycan array binding signal (z-score),[11],-0.812
same,glycan array binding signal (z-score),[12],-0.892
same,glycan array binding signal (z-score),[13],1.28
same,glycan array binding signal (z-score),[14],-0.271
same,glycan array binding signal (z-score),[15],-0.909
same,glycan array binding signal (z-score),[16],-0.632
same,glycan array binding signal (z-score),[17],0.919
same,glycan array binding signal (z-score),[18],-0.508
same,glycan array binding signal (z-score),[19],-0.931
same,glycan array binding signal (z-score),[20],-0.615
same,glycan array binding signal (z-score),[21],-0.691
same,glycan array binding signal (z-score),[22],-1.04
same,glycan array binding signal (z-score),[23],-0.588
same,glycan array binding signal (z-score),[24],-0.456
same,glycan array binding signal (z-score),[25],-0.524
same,glycan array binding signal (z-score),[26],-0.548
same,glycan array binding signal (z-score),GlcNAc(b1-3)Fuc,-0.449
same,glycan array binding signal (z-score),GlcNAc(b1-3)Gal,-0.823
same,glycan array binding signal (z-score),[27],-0.547

# Another view of part of the listing above:
binder	measurement	setting	value
B1	glycan array binding signal (z-score)	GlcA(b1-3)GlcNAc	-0.379
same	glycan array binding signal (z-score)	GlcA(b1-6)Gal	2.31

# Source: the supplement of paper PMC8728848
